In the supplement of paper PMC12819154, “High-throughput peptide-centric local stability assay extends protein–ligand identification to membrane proteins, tissues and bacteria” (Nature Structural & Molecular Biology, 2025):
This is one part of the list. Small differences around the control level are noise.

Chains of the proteins cited; added tags and fusions are not shown. Lines headed by an entry give the natural chain unless they say otherwise; changes in a name come on top.
UniProt O35166: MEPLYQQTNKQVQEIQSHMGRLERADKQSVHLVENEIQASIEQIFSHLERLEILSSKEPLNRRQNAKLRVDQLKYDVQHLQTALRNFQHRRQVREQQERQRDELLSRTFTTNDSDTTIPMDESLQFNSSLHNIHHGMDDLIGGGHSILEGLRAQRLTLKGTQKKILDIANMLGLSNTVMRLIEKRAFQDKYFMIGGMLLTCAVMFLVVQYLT
UniProt O35601: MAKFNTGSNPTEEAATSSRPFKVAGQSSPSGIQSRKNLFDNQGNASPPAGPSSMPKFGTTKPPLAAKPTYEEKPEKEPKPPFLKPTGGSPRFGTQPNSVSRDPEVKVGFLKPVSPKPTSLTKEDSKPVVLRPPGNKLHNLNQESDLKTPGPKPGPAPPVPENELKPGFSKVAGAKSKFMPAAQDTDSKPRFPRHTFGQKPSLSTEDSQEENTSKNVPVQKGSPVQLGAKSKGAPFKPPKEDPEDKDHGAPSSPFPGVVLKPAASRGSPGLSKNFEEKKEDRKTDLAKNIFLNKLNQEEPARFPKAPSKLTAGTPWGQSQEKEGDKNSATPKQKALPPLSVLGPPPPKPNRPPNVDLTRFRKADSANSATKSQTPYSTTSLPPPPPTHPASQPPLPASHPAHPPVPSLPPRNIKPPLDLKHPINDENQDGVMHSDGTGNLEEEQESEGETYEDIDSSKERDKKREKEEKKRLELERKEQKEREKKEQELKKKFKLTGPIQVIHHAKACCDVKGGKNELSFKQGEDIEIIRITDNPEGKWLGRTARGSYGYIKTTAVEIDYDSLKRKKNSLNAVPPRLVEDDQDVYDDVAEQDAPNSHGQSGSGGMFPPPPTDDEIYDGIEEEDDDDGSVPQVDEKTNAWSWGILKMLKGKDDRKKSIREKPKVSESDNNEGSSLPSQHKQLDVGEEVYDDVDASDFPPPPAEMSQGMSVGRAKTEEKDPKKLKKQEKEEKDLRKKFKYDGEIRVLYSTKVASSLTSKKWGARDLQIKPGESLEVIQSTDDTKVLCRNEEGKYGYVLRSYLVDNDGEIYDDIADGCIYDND
UniProt O70255: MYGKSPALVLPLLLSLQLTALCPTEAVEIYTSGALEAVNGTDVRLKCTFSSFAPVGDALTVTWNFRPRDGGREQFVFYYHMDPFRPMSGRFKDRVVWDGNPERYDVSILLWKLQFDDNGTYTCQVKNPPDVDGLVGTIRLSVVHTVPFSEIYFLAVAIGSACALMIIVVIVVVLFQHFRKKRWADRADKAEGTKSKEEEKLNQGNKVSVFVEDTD
UniProt O09000: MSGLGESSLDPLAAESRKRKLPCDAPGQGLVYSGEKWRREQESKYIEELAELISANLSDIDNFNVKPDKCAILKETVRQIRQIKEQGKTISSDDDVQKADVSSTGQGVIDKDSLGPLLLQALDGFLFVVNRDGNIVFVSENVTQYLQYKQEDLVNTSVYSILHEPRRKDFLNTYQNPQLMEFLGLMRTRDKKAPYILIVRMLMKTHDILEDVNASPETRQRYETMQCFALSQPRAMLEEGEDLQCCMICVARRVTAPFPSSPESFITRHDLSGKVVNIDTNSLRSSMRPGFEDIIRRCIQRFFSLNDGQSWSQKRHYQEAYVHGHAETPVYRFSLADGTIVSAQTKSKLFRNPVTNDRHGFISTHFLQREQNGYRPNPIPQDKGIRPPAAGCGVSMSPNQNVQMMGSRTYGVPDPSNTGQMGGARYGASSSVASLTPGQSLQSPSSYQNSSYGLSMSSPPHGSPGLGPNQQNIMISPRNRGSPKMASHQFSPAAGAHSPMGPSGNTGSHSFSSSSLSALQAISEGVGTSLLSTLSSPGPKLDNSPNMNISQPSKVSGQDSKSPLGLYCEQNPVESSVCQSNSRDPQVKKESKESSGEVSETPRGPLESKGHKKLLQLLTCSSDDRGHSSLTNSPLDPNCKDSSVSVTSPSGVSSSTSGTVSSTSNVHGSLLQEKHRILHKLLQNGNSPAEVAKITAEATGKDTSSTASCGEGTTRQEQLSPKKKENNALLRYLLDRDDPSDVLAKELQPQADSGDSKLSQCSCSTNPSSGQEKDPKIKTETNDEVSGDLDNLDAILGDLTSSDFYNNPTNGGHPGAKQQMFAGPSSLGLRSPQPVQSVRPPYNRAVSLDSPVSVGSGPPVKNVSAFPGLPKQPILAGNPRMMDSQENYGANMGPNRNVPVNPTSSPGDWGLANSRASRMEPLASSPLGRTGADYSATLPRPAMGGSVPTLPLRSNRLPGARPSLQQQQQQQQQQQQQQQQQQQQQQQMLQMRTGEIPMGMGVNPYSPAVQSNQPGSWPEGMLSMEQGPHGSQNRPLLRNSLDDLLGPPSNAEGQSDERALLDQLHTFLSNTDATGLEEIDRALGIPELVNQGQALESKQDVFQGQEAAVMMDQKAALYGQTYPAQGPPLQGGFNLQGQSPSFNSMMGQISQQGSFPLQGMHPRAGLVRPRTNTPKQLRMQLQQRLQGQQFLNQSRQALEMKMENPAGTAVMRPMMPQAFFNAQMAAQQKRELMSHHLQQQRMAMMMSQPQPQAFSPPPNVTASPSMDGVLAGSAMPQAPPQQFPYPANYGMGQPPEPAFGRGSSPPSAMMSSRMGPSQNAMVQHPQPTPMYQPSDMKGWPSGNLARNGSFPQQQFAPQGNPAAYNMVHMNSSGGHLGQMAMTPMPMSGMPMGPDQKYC
UniProt P00493: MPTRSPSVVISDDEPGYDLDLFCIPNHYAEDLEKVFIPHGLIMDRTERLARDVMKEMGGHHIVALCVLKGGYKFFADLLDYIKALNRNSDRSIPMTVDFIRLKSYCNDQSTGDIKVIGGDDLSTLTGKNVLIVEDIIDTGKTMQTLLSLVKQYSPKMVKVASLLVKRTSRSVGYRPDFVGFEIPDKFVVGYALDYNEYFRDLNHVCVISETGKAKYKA
UniProt O08573: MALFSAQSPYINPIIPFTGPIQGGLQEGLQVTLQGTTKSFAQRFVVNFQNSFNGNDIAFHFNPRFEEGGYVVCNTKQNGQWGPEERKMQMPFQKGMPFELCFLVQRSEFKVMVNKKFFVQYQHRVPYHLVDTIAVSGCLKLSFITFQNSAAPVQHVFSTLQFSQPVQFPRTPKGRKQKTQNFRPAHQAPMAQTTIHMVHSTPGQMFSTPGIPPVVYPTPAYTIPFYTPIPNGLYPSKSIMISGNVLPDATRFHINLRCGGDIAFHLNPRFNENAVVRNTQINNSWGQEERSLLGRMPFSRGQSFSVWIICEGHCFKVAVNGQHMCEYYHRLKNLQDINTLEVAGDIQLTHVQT
UniProt O88792: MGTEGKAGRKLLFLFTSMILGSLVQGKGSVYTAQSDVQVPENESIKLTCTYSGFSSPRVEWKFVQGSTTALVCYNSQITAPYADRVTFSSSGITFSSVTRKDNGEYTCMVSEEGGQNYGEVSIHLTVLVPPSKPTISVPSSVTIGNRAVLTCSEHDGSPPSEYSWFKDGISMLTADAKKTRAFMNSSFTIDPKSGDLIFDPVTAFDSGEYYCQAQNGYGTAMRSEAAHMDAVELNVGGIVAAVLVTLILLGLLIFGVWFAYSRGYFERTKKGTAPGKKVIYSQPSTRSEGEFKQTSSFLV
UniProt O88844, whole entry: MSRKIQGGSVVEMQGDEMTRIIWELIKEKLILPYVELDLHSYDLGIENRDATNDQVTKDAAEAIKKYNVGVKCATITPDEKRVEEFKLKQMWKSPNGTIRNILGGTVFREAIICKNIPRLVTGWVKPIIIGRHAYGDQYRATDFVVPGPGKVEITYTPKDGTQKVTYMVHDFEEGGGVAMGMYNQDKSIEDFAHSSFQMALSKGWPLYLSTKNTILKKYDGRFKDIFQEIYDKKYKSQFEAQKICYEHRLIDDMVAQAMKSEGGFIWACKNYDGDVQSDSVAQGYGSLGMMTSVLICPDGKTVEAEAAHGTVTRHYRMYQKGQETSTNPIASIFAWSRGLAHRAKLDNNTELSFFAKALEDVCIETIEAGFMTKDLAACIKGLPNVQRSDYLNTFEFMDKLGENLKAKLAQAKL
UniProt O55242, whole entry: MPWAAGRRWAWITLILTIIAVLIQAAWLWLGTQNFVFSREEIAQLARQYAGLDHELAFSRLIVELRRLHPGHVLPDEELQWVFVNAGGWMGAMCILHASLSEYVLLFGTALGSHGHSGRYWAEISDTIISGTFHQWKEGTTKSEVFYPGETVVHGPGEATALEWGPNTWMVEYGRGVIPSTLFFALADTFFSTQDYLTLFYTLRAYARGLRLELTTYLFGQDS
UniProt G3X982: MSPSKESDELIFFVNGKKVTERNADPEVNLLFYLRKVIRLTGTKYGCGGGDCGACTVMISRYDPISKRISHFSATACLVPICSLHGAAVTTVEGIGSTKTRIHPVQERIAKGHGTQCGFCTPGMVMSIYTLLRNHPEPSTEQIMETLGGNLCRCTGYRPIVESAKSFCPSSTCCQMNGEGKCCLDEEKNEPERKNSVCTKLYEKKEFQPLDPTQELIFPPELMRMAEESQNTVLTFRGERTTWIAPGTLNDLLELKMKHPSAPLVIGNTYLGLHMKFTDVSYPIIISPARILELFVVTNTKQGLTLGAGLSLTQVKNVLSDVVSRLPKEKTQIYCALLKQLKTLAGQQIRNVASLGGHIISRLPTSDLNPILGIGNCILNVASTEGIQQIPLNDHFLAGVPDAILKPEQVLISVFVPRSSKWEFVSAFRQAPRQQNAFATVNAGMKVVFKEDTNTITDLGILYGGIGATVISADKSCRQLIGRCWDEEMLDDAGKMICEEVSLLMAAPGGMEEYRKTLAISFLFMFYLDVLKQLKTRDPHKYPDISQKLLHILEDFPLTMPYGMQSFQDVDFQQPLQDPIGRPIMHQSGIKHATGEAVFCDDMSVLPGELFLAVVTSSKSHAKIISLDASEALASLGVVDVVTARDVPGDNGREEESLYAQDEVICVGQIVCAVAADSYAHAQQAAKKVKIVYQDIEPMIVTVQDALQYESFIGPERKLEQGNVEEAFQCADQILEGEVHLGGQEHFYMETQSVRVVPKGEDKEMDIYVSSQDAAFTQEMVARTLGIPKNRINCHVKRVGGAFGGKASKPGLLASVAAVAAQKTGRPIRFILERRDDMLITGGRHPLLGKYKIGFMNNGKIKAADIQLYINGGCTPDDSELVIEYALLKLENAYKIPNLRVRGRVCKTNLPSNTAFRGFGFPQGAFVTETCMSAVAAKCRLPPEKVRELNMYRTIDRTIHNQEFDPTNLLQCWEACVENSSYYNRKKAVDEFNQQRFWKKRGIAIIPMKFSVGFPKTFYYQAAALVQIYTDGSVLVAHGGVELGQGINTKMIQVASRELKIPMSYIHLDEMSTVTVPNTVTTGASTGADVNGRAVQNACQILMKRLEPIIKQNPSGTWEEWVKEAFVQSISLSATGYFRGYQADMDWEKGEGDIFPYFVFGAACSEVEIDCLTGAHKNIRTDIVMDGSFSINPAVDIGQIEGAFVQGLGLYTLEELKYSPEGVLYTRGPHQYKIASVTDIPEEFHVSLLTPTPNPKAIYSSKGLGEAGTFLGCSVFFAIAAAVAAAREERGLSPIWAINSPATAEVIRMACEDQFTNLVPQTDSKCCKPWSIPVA
UniProt O35639: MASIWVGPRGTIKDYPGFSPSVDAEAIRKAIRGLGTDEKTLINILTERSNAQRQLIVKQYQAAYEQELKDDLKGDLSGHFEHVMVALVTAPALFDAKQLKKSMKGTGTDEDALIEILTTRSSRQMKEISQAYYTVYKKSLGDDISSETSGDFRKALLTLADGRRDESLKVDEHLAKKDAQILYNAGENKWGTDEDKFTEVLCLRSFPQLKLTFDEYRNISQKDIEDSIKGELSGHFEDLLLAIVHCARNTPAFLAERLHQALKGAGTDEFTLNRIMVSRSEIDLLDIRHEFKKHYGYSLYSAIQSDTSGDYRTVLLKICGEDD
UniProt O35648: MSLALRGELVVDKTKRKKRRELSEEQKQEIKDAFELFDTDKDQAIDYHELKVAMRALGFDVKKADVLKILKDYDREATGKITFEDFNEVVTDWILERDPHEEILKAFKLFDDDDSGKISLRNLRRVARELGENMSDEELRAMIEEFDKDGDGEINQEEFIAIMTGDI
UniProt O35403: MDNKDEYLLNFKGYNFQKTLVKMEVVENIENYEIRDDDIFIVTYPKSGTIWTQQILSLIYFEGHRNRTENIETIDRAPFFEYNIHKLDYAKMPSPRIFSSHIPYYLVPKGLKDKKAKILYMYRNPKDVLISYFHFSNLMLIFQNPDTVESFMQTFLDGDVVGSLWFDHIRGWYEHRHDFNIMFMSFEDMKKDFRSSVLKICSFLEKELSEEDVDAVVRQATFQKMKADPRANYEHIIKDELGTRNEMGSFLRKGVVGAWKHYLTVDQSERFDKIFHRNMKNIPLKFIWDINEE
UniProt O88551: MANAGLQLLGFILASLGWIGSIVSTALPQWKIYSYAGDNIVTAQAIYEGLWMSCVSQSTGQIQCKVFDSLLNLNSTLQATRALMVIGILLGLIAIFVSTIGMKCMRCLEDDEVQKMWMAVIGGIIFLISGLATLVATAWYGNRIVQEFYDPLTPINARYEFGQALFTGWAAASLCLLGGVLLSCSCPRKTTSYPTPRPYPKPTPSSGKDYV

These targets were tested with CN[C@@H]1C[C@H]2O[C@@](C)([C@@H]1OC)n1c3ccccc3c3c4c(c5c6ccccc6n2c5c31)C(=O)NC4 [staurosporine] (assay: log2 fold change of pooled soluble protein (PISA), ligand vs vehicle (log2 ratio); higher = more thermally stabilized). Details: ligand concentration: 20 uM; assay format: PISA pool 52.9/55.5/58.6 C.

| Target | log2 fold change of pooled soluble protein |
| --- | --- |
| UniProt O35685 | 0.042 |
| UniProt O55128 | 0.179 |
| UniProt O88878 | -0.164 |
| UniProt P00688 | 0.00871 |
| UniProt O08715 | -0.0588 |
| UniProt G3X9Z4 | -0.0716 |
| UniProt O08585 | 0.0423 |
| UniProt O55131 | 0.019 |
| UniProt O70591 | -0.0509 |
| UniProt O55026 | -0.4 |
| UniProt O54946 | 0.204 |
| UniProt O35166 | 0.982 |
| UniProt O35126 | 0.0534 |
| UniProt O35601 | -0.0501 |
| UniProt O89051 | 0.146 |
| UniProt O70400 | -0.0266 |
| UniProt O88531 | -0.0988 |
| UniProt O70255 | 0.0416 |
| UniProt O09000 | -0.0733 |

Shown as tab-separated lines: entries from further up.
Target	log2 fold change of pooled soluble protein
UniProt O88878	-0.164
UniProt P00688	0.00871

(next part)

| Target | log2 fold change of pooled soluble protein |
| --- | --- |
| UniProt O08734 | -0.0127 |
| UniProt P00493 | -0.261 |
| UniProt P01680 | 0.16 |
| UniProt O54916 | 0.0255 |
| UniProt O08573 | 0.152 |
| UniProt O88792 | -0.0566 |
| UniProt O35326 | -0.00668 |
| UniProt O88844 | -0.0516 |
| UniProt O55242 | -0.00593 |
| UniProt G3X982 | -0.072 |
| UniProt O88322 | -0.0907 |
| UniProt O55142 | -0.213 |
| UniProt O55060 | 0.104 |
| UniProt O35639 | 0.169 |
| UniProt O88587 | 0.0895 |
| UniProt O35648 | 0.304 |
| UniProt O35403 | 0.017 |
| UniProt O88551 | 0.0434 |
